Patent publication US7807362
Construct, isoform or probe ends are uncertain for at least one entry. A negative result means that nothing was seen under these conditions. Tags and fusion partners may be left off the protein sequences shown.

Assays:
[1] = target: T1, hSlug (SNAI2) (Homo sapiens) (UniProt O43623); assay: activity in cells; details: protein in cells, protein details: pCMV-Slug expression vector
T1 sequence (looked up): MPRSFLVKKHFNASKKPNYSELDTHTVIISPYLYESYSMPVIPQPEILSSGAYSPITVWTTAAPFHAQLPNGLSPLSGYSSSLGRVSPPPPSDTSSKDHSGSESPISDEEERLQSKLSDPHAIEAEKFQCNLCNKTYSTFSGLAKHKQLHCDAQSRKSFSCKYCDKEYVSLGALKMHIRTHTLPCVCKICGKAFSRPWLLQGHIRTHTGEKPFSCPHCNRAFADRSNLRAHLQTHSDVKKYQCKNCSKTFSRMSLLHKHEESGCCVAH

hScratch (Homo sapiens) = target: T2, hScratch (Homo sapiens) (UniProt Q9BWW7); assay: activity in cells; details: protein in cells, protein details: expression vector
T2 sequence (looked up, limits assumed): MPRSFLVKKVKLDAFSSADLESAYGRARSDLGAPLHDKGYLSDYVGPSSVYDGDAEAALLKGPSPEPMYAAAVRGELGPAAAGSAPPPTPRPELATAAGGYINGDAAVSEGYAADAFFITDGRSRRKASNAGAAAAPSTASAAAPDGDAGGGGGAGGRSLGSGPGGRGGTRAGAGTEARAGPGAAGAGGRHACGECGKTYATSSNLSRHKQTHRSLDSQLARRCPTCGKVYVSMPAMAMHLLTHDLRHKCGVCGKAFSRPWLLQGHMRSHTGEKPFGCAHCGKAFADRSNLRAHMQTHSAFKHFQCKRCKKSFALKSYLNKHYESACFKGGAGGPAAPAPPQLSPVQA

[2] = repression of luciferase in SK-N-BE(2)C

Row | Sequence | activity on this sequence ([1]; little effect on reporter) | activity on this sequence (hScratch (Homo sapiens); little effect on reporter) | activity on this sequence [1, 2] | activity on this sequence (hScratch (Homo sapiens); [2])
1 | GAATTCAGGGCAGGTCAGCTGCAGTGTAATATATGCCTATTGTCCCCTGATCAAGACAGAAAGACAGAATGAAAAGGAAGAAGGAAGGAAGGAACGGAGGAAAGAAAAGAGGGATGGAGGAAACAAATATGTAGGCAAACCTCTCCTCCTTTTTTTCCTTAGTCTCCTCATTGGTGCCATGGAGGTGTAGGTTCTGATAGCGTCCTCAGCGGACACAGGCCCTTGGATTCTAAATGTGTCCCAGCCCAGCTGTTGTGTGTCAGGGCCCCAGTGTCTGTGGGGAGATGGCCAGAGATGGACTCACAGCATCAGCCATTGCCTTTTACCCCATGGCCTGTGTCACCAAGTGCCATGGTAAGTGGAAGTGATGGCTCCCCAGAGATCACATTAGCTCTGATAATGCTCCAGCCTCCCATGCACAACTTGCCCTCAGGCCACCTGGCTGGGCAGGAAGAAGGGCTCCCAGAGAAGCCACATGGCCCCATGGCGGTGAGTCTGGGCGAGAGATGGAGAGAGACGCCTTCCCTTTTAGCCCAGTCCCAGCCTAGTGTCCTCACTGCTGACCCCCGGTAGTCTCTGAAACCACAGATGGAGCTCCCAGACTTGCTGATTGGCCCCCGTGATGGCGTGCGCATTAGGAGGAAATGCCTCCCTCCACCCTTGTAGCAAACACTTCCAGCTCCATGCCCACACCCCTTATCATCCACTGTTCCTGCCAGTGCAGACCCAACCCAATGGCTTCGTGCTGCCAGTACCTGGGGCTCTGCTGTTAGCCTTTCTCTGGCAGCAGGACAGGCTCATCCCTCTTATCAGACAGGCTGGACTTGGTGGGAAGTTGACACTCTGGGGGCGGCCTTCATGGATAAATACTGTAGTTTTCTTGCCCCTCAAGTGAGACAACCCCAAGGCGTGCTCTGTGCAGTCTCCCGAGGCCCCCACCAGGGCTGAGCACCAGTTTCCCCAGCAGCAAGTGCTCCTTAATCTACTTTCTCCTGGTTTCCTTCCCTTTGCTGTCTC (double strand) [4.0 kb hNET promoter-luciferase, -3081(A), pNET4000(i)LUC(A)] | not active | not active | – | –
2 | GAATTCAGGGCAGGTCAGCTGCAGTGTAATATATGCCTATTGTCCCCTGATCAAGACAGAAAGACAGAATGAAAAGGAAGAAGGAAGGAAGGAACGGAGGAAAGAAAAGAGGGATGGAGGAAACAAATATGTAGGCAAACCTCTCCTCCTTTTTTTCCTTAGTCTCCTCATTGGTGCCATGGAGGTGTAGGTTCTGATAGCGTCCTCAGCGGACACAGGCCCTTGGATTCTAAATGTGTCCCAGCCCAGCTGTTGTGTGTCAGGGCCCCAGTGTCTGTGGGGAGATGGCCAGAGATGGACTCACAGCATCAGCCATTGCCTTTTACCCCATGGCCTGTGTCACCAAGTGCCATGGTAAGTGGAAGTGATGGCTCCCCAGAGATCACATTAGCTCTGATAATGCTCCAGCCTCCCATGCACAACTTGCCCTCAGGCCACCTGGCTGGGCAGGAAGAAGGGCTCCCAGAGAAGCCACATGGCCCCATGGCGGTGAGTCTGGGCGAGAGATGGAGAGAGACGCCTTCCCTTTTAGCCCAGTCCCAGCCTAGTGTCCTCACTGCTGACCCCCGGTAGTCTCTGAAACCACAGATGGAGCTCCCAGACTTGCTGATTGGCCCCCGTGATGGCGTGCGCATTAGGAGGAAATGCCTCCCTCCACCCTTGTAGCAAACACTTCCAGCTCCATGCCCACACCCCTTATCATCCACTGTTCCTGCCAGTGCAGACCCAACCCAATGGCTTCGTGCTGCCAGTACCTGGGGCTCTGCTGTTAGCCTTTCTCTGGCAGCAGGACAGGCTCATCCCTCTTATCAGACAGGCTGGACTTGGTGGGAAGTTGACACTCTGGGGGCGGCCTTCATGGATAAATACTGTAGTTTTCTTGCCCCTCAAGTGAGACAACCCCAAGGCGTGCTCTGTGCAGTCTCCCGAGGCCCCCACCAGGGCTGAGCACCTGTTTCCCCAGCAGCAAGTGCTCCTTAATCTACTTTCTCCTGGTTTCCTTCCCTTTGCTGTCTC (double strand) [4.0 kb hNET promoter-luciferase, -3081(T), pNET4000(i)LUC(T)] | – | – | active | active
